In publication PMC6753076:
No constants are given. Whether binding was seen depends on the method and setting. In cells and extracts the contact can be indirect. Some results given as binding are weak or reduced against the parent protein; the word gives no strength. For some assays here: Where a sequence is shown, tags or fusion partners need not be part of it.

Chains of the proteins cited; added tags and fusions are not shown. Lines headed by an entry give the natural chain unless they say otherwise; changes in a name come on top.
UniProt P32754: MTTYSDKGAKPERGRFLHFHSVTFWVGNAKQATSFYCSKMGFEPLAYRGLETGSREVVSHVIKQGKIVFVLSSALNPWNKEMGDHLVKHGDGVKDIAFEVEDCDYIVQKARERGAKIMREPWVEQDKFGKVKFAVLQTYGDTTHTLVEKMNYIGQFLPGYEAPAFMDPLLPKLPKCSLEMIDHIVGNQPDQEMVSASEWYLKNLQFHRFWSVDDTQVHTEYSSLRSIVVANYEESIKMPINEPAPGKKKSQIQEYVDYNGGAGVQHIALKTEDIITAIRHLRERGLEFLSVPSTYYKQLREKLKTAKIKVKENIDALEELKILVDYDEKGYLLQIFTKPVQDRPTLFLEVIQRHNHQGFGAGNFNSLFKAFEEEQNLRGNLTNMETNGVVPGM
UniProt P49429: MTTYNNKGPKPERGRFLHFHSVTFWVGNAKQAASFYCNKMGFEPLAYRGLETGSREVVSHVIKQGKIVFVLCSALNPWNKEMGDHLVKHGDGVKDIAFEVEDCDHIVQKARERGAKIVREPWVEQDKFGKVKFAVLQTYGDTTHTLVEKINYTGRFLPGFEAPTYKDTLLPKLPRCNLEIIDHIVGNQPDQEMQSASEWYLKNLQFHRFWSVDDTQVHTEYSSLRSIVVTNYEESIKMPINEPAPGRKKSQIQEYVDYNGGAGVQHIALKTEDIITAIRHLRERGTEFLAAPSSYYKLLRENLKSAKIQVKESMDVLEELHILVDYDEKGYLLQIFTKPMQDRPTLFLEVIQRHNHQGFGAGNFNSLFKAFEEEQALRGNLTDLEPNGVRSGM
UniProt Q9BYT3: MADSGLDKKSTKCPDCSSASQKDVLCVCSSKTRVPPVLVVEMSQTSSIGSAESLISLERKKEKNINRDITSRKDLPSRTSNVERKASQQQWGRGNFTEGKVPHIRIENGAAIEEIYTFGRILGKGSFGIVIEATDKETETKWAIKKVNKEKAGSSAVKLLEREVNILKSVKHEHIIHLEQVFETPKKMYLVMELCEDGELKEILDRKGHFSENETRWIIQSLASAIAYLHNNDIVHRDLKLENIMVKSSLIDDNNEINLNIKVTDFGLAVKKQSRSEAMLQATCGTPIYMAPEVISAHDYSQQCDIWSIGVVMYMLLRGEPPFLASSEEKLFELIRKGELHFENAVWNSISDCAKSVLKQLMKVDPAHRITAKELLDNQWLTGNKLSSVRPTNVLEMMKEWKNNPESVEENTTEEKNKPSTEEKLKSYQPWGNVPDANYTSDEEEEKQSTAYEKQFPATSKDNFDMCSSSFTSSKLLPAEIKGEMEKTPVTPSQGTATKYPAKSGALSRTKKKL
UniProt Q924X7: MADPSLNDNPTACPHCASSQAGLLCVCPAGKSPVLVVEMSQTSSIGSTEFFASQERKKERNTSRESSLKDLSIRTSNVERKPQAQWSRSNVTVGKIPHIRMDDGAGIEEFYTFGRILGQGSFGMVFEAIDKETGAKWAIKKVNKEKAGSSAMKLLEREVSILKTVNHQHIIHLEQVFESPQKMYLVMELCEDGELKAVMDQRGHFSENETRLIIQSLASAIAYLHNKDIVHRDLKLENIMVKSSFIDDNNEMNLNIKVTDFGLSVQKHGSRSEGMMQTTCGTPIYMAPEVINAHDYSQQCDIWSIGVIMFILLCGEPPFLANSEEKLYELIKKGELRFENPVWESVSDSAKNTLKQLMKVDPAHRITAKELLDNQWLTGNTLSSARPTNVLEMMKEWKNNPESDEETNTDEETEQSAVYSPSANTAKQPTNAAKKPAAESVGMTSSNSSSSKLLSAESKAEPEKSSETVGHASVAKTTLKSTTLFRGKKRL

Experiments:
[1] = target: T1, Flag-PELI1 (CMV-Flag-Peli1), wild type (human) (UniProt Q96FA3); assay: co-IP; HEK293T transfected with the indicated plasmids; immunoprecipitation with an anti-Flag antibody
T1 sequence: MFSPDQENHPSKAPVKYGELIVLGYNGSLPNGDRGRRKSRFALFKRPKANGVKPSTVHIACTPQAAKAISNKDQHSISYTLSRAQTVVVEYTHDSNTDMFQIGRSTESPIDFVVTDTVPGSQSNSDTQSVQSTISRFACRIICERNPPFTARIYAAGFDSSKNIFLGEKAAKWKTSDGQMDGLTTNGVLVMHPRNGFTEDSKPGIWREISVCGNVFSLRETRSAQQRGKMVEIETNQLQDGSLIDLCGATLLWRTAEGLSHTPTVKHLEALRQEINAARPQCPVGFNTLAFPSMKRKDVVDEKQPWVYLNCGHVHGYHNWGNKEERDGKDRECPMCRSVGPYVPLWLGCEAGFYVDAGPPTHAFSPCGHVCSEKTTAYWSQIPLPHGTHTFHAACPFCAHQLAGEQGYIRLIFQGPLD

[2] = target: 4-hydroxyphenylpyruvic acid dioxygenase (HPD), endogenous human (human (endogenous in HEK293T and LO2)) (UniProt P32754); assay: co-IP; LO2 cell lysates, immunoprecipitation with an anti-HPD antibody; also cells with Ttc36 shRNA or stably expressed Flag-TTC36
[3] = target: T2, PELI1 E3 ubiquitin ligase, endogenous human (human (endogenous in HEK293T and LO2)) (UniProt Q96FA3); assay: co-IP; LO2 cells with Ttc36 shRNA#1, with or without RNAi-resistant TTC36; immunoprecipitation with an anti-PELI1 antibody; endogenous proteins
T2 sequence: T1 sequence

[4] = target: T3, TTC36, endogenous mouse (mouse (endogenous in primary hepatocytes)) (UniProt Q8VBW8); assay: co-IP; lysates of primary hepatocytes of wild type and Ttc36-/- C57BL/6 mice; immunoprecipitation with an anti-TTC36 antibody; lysis buffer 50 mM Tris-HCl pH 7.5, 0.1% SDS, 1% Triton X-100, 150 mM NaCl; overnight at 4 °C
T3 sequence: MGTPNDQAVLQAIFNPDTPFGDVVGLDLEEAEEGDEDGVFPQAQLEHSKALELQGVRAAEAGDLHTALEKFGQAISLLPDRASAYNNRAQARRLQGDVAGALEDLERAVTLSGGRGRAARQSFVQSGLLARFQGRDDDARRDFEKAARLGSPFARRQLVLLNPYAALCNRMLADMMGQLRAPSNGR

[5] = target: HPD, endogenous mouse (mouse (endogenous in primary hepatocytes)) (UniProt P49429); assay: co-IP; WT or Ttc36-/- mouse primary hepatocytes, MG-132 (10 μM) 12 h; immunoprecipitation with an anti-HPD antibody

His-HPD (pcDNA3.1-His/V5-Hpd), wild type (from UniProt P32754-1 1-393)
binding [1]: binds

serine/threonine kinase 33 (STK33), endogenous human (from UniProt Q9BYT3 1-514)
binding [2]: binds

4-hydroxyphenylpyruvic acid dioxygenase (HPD), endogenous human (from UniProt P32754 1-393)
binding [3]: binds

HPD, endogenous mouse (from UniProt P49429 1-393)
binding [4]: binds

STK33, endogenous mouse (from UniProt Q924X7 1-491)
binding [5]: binds
